Source: paper PMC4674714
Results are given in words; binding and its absence hold for the method and conditions named. In cells and extracts the contact can be indirect. Some results given as binding are weak or reduced against the parent protein; the word gives no strength.

Amino acid sequences for entries named in this document (tags omitted).
UniProt O08586: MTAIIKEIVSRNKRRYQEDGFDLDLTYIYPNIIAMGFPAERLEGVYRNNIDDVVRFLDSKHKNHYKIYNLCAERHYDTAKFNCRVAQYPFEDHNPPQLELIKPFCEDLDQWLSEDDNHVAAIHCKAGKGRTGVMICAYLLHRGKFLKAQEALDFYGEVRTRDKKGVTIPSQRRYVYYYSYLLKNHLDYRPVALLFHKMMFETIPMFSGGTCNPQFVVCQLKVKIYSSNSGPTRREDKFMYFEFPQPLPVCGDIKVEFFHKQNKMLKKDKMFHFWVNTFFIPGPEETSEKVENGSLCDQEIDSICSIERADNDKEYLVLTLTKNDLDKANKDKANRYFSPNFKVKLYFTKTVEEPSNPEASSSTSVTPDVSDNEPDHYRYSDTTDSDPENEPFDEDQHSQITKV
UniProt Q01320: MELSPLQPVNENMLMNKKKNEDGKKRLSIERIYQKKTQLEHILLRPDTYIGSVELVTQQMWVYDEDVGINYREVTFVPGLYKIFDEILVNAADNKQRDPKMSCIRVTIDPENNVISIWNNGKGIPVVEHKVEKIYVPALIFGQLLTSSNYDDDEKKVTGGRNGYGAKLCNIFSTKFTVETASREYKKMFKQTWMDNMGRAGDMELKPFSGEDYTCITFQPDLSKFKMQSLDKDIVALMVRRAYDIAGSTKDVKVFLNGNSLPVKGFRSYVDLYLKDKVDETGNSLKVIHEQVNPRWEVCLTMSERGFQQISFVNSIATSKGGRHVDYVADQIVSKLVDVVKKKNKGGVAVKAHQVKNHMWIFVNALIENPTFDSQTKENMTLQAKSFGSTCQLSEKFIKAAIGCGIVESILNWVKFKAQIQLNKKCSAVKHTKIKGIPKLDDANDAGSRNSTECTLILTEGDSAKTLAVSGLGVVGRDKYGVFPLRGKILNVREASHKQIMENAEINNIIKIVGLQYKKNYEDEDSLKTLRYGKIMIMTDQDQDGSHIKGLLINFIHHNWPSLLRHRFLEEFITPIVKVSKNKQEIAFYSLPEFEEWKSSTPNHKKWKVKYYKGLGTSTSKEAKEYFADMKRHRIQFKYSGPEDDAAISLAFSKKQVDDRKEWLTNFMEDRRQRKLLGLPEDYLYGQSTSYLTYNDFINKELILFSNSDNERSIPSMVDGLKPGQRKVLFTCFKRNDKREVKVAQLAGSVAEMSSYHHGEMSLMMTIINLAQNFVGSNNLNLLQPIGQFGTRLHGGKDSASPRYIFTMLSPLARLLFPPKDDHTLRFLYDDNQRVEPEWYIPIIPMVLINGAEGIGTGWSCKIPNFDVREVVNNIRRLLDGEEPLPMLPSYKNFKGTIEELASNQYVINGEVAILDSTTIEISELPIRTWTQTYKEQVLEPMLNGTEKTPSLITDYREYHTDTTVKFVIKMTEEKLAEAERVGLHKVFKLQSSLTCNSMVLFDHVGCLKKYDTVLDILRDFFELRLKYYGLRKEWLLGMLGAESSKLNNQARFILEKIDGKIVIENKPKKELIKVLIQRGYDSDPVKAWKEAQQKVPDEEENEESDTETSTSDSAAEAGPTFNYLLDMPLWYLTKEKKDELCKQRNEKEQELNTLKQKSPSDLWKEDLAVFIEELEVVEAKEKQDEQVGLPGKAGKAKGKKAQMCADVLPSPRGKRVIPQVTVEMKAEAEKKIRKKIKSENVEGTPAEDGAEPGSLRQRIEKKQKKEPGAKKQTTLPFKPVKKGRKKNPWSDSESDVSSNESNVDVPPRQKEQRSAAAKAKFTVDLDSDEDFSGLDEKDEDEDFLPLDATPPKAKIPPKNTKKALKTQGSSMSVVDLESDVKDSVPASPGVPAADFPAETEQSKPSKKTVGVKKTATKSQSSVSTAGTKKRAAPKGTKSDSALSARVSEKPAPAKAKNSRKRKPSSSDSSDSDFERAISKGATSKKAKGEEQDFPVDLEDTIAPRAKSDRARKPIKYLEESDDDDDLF

How the values were obtained:
[1] = target: T1, Otud3, endogenous mouse (mouse (endogenous in MEF)) (UniProt B1AZ99); assay: co-IP; endogenous proteins; cell lysates (NP40 lysis buffer with DNase I, 3 mg total protein) incubated overnight with antibody to PTEN or OTUD3, Protein A/G agarose, western blot
T1 sequence: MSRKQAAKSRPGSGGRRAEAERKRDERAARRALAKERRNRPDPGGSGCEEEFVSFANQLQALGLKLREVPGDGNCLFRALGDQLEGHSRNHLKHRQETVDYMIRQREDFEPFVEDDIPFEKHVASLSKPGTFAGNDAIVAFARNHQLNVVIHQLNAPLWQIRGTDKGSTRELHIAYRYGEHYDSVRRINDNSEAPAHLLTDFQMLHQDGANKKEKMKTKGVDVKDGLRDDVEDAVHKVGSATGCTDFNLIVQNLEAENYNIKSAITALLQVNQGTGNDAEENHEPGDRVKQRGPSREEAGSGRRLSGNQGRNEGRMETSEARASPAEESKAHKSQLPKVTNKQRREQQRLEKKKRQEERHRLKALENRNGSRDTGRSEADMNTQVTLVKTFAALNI

[2] = target: Pten, endogenous mouse (mouse (endogenous in MEF)) (UniProt O08586); assay: as above

Top2a, endogenous mouse (from UniProt Q01320 1-1528)
binding [1]: binds | binding [2]: binds
